# According to PubChem BioAssay AID445 (National Center for Advancing Translational Sciences (NCATS), 2006):
# The other results are listed elsewhere or left out. The main result of the screen is listed elsewhere. These columns were measured beside it and carry no call. The list favours compounds with an active or inconclusive main result. Potencies come from curve fits of mixed quality, noted in brackets.
# Assay: IkB Signaling
# Settings: ABC-DLBCL IkBa-CBG/CBR dual luciferase ratio (green luciferase fused to IkBa over red control in OCI-Ly3 lymphoma cells), 4 h
# Method in brief: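 In this assay, an IκBα–CBG68 fusion accumulates when IKK-driven degradation is blocked; native CBR normalizes for cell number. OCI-Ly3 cells were treated 4 h with compound and doxycycline, then green and red light read after Chroma-Glo addition.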
# [1] = measured here: control luc red channel unless noted
smiles,measurement,setting,value
O[C@@H](C1=C/C(=C\c2ccncc2)c2ccccc21)c1ccncc1,AC50,[1],"5.01 µM [rising, single point] [measured here: IkB-luc green channel]"
Cc1ccc(-c2nc3n(n2)C(=O)CC(c2ccc(Cl)cc2)S3)cc1 (stereo not given),AC50,[1],"39.8 µM [falling, single point]"
Cc1c(C(=O)NCCc2ccccc2)oc2ccc(S(=O)(=O)N3CCC4(CC3)OCCO4)cc12,AC50,[1],"10 µM [falling, partial curve]"
O=C(NCc1ccc(F)cc1)c1cc2n(n1)CCCN(Cc1ccc(F)cc1)C2=O,AC50,[1],"39.8 µM [falling, single point]"
Cc1ccc(C(=O)Nc2sc3c(c2C(=O)NCc2ccco2)CCC(C(C)(C)C)C3)cc1 (stereo not given),AC50,[1],"7.94 µM [falling, single point]"
Cc1ccc(C)c(N2CCN(CCCNC(=O)c3cnn(-c4ccccc4Cl)c3C3CCN(C(=O)OC(C)(C)C)CC3)CC2)c1,AC50,[1],"12.6 µM [falling, partial curve]"
CCOc1ccc(Sc2cc(C(=O)NC(C)c3ccccc3)c3ccccc3n2)cc1 (stereo not given),AC50,[1],"1.26 µM [falling, full curve, poor fit]"
Cc1ccc(OCC(=O)Nc2cc3nn(-c4ccccc4)nc3cc2C)cc1,AC50,[1],"15.8 µM [falling, partial curve]"
Cc1ccsc1CN(C(=O)COc1ccc(Br)cc1)C1CCS(=O)(=O)C1 (stereo not given),AC50,[1],"25.1 µM [falling, partial curve]"
Cc1ccc(C(=O)Nc2ccc(NC(=O)c3cccs3)cc2)cc1C,AC50,[1],"15.8 µM [falling, partial curve]"
Cc1cc(Cl)ccc1NC(=O)C(=O)NCc1ccco1,AC50,[1],"39.8 µM [falling, single point]"
Cc1ccc(N2C(=O)CSC23C(=O)N(CC(=O)NCc2ccccc2)c2ccccc23)cc1C (stereo not given),AC50,[1],"20 µM [falling, single point]"
COCCCNC(=O)c1ccc(NC(=O)c2nsc3ccccc23)cc1,AC50,[1],"3.98 µM [falling, partial curve]"
COc1ccccc1CNC(=O)C1CCC(CNS(=O)(=O)c2ccc3c(c2)CCCC(=O)N3)CC1 (stereo not given),AC50,[1],"25.1 µM [falling, partial curve]"
COC(=O)c1cc2sc(Cl)cc2n1CC(=O)Nc1ccc(OC)c(OC)c1OC,AC50,[1],"7.94 µM [falling, full curve]"
COc1ccc(CNC(=O)c2ccc(N3CCCC3)c(NC(=O)NCc3ccc(F)cc3)c2)cc1,AC50,[1],"12.6 µM [falling, partial curve]"
CS(=O)(=O)c1ccc(-c2nnc(NC(=O)c3ccc4c(c3)OCCO4)o2)cc1,AC50,[1],"2 µM [falling, partial curve, poor fit]"
CCC1CN(C(=O)N2CCC(C(=O)NCCN(CC)CC)CC2)c2cc(C)ccc2O1 (stereo not given),AC50,[1],"12.6 µM [falling, partial curve]"
COc1ccc(CNC(=O)CCn2cccn2)cc1,AC50,[1],"2 µM [falling, partial curve]"
COc1ccc(CCn2cc3c(c2-c2ccc(Br)cc2)c(=O)n(C)c(=O)n3C)cc1OC,AC50,[1],"3.16 µM [rising, partial curve]"
COc1ccc(-c2nc(C)c(CCNC(=O)C(=O)Nc3ccccc3OC)s2)cc1,AC50,[1],"20 µM [falling, single point]"
CCc1ccc(C(=O)c2cn(CC(=O)Nc3ccc4c(c3)OCO4)c3cc(OC)c(OC)cc3c2=O)cc1,AC50,[1],"39.8 µM [falling, single point]"
Cc1ccc(-c2nnc(SCc3ccccc3C)o2)cc1,AC50,[1],"2 µM [rising, partial curve]"
CCc1ccccc1NC(=O)c1c(NC(=O)c2ccccc2)sc2c1CCCC2,AC50,[1],"10 µM [falling, partial curve]"
Cc1ccc(C)c(N2CCN(C(=O)C3CCCN(S(=O)(=O)c4ccc5c(c4)oc(=O)n5C)C3)CC2)c1 (stereo not given),AC50,[1],"25.1 µM [falling, partial curve]"
COc1ccc2c(c1)Cc1sc(NC(=O)c3cccs3)nc1-2,AC50,[1],"6.31 µM [falling, partial curve]"
Cc1cccc(-c2nc(CSCC(=O)N3CCN(Cc4ccc5c(c4)OCO5)CC3)c(C)o2)c1,AC50,[1],"15.8 µM [falling, partial curve]"
COc1cc(-c2cc(OC)c3c(C)oc(C)c3c(=O)c2)ccc1OC(=O)c1ccccc1Cl,AC50,[1],"3.16 µM [falling, partial curve, poor fit]"
Cc1cc(C)c2c(=O)cc(CSCC(=O)Nc3ccccc3Cl)[nH]c2c1,AC50,[1],"25.1 µM [falling, partial curve]"
O=C(CCCN1C(=O)CSc2ncccc21)N1CCN(c2cccc(C(F)(F)F)c2)CC1,AC50,[1],"31.6 µM [falling, partial curve]"
Cc1cccc(Oc2nc3c(C)cccn3c(=O)c2/C=C(\C#N)c2nc3ccccc3[nH]2)c1,AC50,[1],"1.26 µM [rising, partial curve]"
Cc1cc(S(=O)(=O)C(CNC(=O)COc2ccc(Cl)cc2)c2cccs2)ccc1F (stereo not given),AC50,[1],"25.1 µM [falling, single point]"
Cc1ccc(CCNC(=O)C2CCN(Cc3nc(-c4ccccc4C)oc3C)CC2)cc1,AC50,[1],"12.6 µM [falling, partial curve]"
c1ccc(Cc2nnc(-c3ccccc3)o2)cc1,AC50,measured here: IkB-luc green channel,"25.1 µM [rising, partial curve]"
same,AC50,measured here: control luc red channel,"20 µM [falling, single point]"
Clc1cccc(C=NC=Nc2cccc(Cl)c2)c1,AC50,[1],"0.794 µM [rising, partial curve, poor fit]"
Cc1ccc(N(Cc2cc(=O)[nH]c3ccccc23)C(=O)c2ccco2)cc1,AC50,[1],"1.58 µM [falling, full curve]"
COc1cccc(NC(=O)C(Cc2ccccc2)NS(=O)(=O)c2ccc3c(c2)oc(=O)n3C)c1 (stereo not given),AC50,[1],"3.16 µM [falling, partial curve]"
Cc1coc2cc3oc(=O)c(CC(=O)NCCc4ccccc4)c(C)c3cc12,AC50,[1],"39.8 µM [falling, single point]"
CCOc1ccc(NC(=O)Cn2cc(C(=O)c3ccco3)c3ccccc32)cc1,AC50,[1],"39.8 µM [falling, partial curve, poor fit]"

# Reformatted: entries from further up.
smiles	measurement	setting	value
Cc1cc(C)c2c(=O)cc(CSCC(=O)Nc3ccccc3Cl)[nH]c2c1	AC50	[1]	25.1 µM [falling, partial curve]
O=C(CCCN1C(=O)CSc2ncccc21)N1CCN(c2cccc(C(F)(F)F)c2)CC1	AC50	[1]	31.6 µM [falling, partial curve]
